Test results as given in patent US8742167B2, “Therapeutic formulations based on asiatic acid and selected salts thereof” (Shanghai Institute of Pharmaceutical Industry, priority 2008, dated 2014).

Test system: bleomycin-induced pulmonary fibrosis in rats
Assay: Lung weight index of bleomycin-induced pulmonary fibrosis in rats
Type: in vivo, SD rats
Details: body weight
Experimental: Male SD rats, body weight 250-300 g. The animals were anesthetized with 3% seconal, laid flat and fixed onto the operating table. The necks of the animals were disinfected with alcohol and cut to expose tracheae. A needle was inserted via the space between tracheal rings centripetally, and 5 mg/kg of bleomycin was injected. The rats were kept upright and rotated, in order to keep the solution uniformly distributed in the lungs. Then the incisions were sutured.
After the rats regained consciousness, they were randomly grouped. The animals were divided into (i) a group receiving administration on the next day after establishing the model and (ii) a group receiving administration at 7 days after the model was established. Included were 27, 9, and 3 mg/kg p.o.×28 d asiatic acid groups, 0.6 mg/kg p.o.×28 d dexamethasone group, 36 mg/kg p.o.×28 d asiaticoside group, model group, and blank group. Normal saline was administered for the model and blank groups. On the 28th day after asiatic acid and asiaticoside administration, survival and weight ratio of lungs were measured; pathological examination and serological examination were performed.
Effect of on lung weight index of bleomycin-induced pulmonary fibrosis in rats treated with asiatic acid Body weight and lung weight were measured after the rats were sacrificed. Lung weight ratio=(lung weight/body weight)×100%.

Row | SMILES | weight (g) X ± SD (asiatic acid 3 mg/kg, 28-day administration started 7 day after model established) | weight (g) X ± SD (asiatic acid 3 mg/kg, 28-day administration started from the second day) | weight (g) X ± SD (asiatic acid 9 mg/kg, 28-day administration started 7 day after model established) | weight (g) X ± SD (asiatic acid 9 mg/kg, 28-day administration started from the second day) | weight (g) X ± SD (asiatic acid 27 mg/kg, 28-day administration started 7 day after model established) | weight (g) X ± SD (asiatic acid 27 mg/kg, 28-day administration started from the second day) | weight (g) X ± SD (asiaticoside 36 mg/kg, 28-day administration started 7 day after model established) | weight (g) X ± SD (asiaticoside 36 mg/kg, 28-day administration started from the second day)
1 | C[C@H]1[C@H](C)CC[C@]2(C(=O)O)CC[C@]3(C)C(=CC[C@@H]4[C@@]5(C)C[C@@H](O)[C@H](O)[C@@](C)(CO)[C@@H]5CC[C@]43C)[C@H]12 [Asiatic acid, asiatic acid] | 317.70 ± 44.19 g | 328.33 ± 31.64 g | 329.30 ± 30.54 g | 316.80 ± 49.73 g | 343.30 ± 49.57 g | 347.8 ± 59.3 g | – | –
2 | C[C@H]1[C@H](C)CC[C@]2(C(=O)O[C@@H]3O[C@H](CO[C@@H]4O[C@H](CO)[C@@H](O[C@@H]5O[C@H](C)[C@H](O)[C@@H](O)[C@H]5O)[C@H](O)[C@H]4O)[C@@H](O)[C@H](O)[C@H]3O)CC[C@]3(C)C(=CC[C@@H]4[C@@]5(C)C[C@@H](O)[C@H](O)[C@@](C)(CO)[C@@H]5CC[C@]43C)[C@H]12 [Asiaticoside, asiaticoside] | – | – | – | – | – | – | 324.60 ± 44.06 g | 311.30 ± 28.76 g
